Residue numbers refer to the chain shown, from its start. The entries are a selection whose mix differs from that of the whole data set. The calls were merged from several studies; some rest on single wells. The list shows a part of the results.
Legend:
Details in all cases: stereoisomer not certain
[1] = target: T1, OR2AG2 (Homo sapiens) (UniProt A6NM03)
T1 sequence (whole entry): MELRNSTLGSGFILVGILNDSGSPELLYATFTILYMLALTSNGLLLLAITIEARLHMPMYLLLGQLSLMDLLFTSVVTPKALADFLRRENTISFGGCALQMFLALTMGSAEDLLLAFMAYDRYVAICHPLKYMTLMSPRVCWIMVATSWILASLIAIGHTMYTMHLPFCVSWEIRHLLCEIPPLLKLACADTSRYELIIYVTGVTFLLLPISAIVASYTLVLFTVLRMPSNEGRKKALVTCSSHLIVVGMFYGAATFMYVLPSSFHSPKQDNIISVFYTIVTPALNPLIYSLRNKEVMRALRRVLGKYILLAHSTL
Outline: (§1)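 Each receptor–molecule pair is labelled responsive or non-responsive (inactive) according to whether the original authors judged the measured signal statistically different from baseline. The data were taken from the main text and supplementary material of published papers and checked for typos and inconsistencies. Assay methods differed by source, with transient luciferase assays in mammalian cell lines being common.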

Chains of the proteins cited; added tags and fusions are not shown. A line that says so, or that is headed by a name, gives the form on record, which may keep a tag or linker.
OR2C1, as listed by the source: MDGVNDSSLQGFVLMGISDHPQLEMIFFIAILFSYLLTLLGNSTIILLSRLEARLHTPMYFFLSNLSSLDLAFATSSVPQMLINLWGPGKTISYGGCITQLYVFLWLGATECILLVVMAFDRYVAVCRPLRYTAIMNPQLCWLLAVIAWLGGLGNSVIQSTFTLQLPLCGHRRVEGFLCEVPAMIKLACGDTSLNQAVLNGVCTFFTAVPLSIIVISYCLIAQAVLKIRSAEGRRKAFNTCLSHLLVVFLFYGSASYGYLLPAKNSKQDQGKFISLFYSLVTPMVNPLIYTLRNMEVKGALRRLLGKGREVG

[2] = target: T2, OR2AP1 (Homo sapiens) (UniProt Q8NGE2)
T2 sequence (whole entry): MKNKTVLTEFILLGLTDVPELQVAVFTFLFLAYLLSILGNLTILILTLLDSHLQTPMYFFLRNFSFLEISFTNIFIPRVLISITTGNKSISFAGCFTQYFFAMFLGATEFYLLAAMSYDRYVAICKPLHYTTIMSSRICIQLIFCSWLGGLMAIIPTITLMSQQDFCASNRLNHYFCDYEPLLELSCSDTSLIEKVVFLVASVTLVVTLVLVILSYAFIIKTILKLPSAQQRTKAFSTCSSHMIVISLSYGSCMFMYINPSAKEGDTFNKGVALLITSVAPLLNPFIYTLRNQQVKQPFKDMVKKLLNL
Outline: as §1

[3] = target: T3, OR2AT4 (Homo sapiens) (UniProt A6NND4)
T3 sequence (whole entry): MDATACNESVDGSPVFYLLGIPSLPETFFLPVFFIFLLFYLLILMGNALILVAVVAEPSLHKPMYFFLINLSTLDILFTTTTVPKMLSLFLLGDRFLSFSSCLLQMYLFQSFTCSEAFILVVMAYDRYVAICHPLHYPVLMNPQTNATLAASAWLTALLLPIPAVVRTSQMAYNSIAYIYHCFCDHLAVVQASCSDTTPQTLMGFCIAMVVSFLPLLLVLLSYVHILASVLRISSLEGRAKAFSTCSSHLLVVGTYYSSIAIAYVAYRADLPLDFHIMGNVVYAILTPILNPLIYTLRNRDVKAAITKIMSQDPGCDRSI
Outline: as §1

[4] = target: T4, OR2B11 (Homo sapiens) (UniProt Q5JQS5)
T4 sequence (whole entry): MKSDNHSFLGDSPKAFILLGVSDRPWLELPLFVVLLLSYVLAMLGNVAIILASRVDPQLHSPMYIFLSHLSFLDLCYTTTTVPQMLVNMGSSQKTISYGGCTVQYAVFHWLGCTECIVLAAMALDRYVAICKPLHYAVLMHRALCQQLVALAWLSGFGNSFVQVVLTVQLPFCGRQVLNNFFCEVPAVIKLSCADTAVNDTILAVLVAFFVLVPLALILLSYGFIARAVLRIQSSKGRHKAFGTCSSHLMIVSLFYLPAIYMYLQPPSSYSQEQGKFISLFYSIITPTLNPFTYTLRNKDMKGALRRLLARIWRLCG
Outline: as §1

[5] = target: T5, OR2B2 (Homo sapiens) (UniProt Q9GZK3)
T5 sequence (whole entry): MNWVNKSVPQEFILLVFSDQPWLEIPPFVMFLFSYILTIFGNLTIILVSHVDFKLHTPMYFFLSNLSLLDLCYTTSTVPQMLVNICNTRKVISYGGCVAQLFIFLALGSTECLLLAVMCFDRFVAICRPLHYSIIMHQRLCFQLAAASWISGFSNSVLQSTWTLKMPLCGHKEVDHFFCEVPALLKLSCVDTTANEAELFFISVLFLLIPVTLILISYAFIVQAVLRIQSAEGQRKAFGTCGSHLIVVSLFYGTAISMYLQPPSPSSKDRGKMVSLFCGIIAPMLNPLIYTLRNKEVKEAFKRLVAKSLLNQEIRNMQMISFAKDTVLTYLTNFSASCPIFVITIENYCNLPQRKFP
Outline: as §1

[6] = target: T6, OR2B3 (Homo sapiens) (UniProt O76000)
T6 sequence (whole entry): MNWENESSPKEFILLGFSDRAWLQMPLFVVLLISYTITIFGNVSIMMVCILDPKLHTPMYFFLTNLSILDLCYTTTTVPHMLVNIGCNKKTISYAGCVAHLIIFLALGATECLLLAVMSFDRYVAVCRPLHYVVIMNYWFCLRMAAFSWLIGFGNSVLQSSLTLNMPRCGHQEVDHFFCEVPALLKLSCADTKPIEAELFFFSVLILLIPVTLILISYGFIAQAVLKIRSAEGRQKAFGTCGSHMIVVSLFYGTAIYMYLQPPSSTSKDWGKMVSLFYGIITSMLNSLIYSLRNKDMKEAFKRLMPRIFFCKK
Outline: as §1

[7] = target: T7, OR2B6 (Homo sapiens) (UniProt P58173)
T7 sequence (whole entry): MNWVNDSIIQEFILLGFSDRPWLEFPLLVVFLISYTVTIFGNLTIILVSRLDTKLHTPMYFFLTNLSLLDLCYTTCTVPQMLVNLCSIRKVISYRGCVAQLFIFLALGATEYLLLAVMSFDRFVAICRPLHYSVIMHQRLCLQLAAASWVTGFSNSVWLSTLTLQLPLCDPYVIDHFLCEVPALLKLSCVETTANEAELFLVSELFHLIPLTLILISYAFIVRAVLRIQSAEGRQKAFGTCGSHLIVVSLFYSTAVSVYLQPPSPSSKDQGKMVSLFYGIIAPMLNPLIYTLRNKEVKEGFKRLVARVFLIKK
Outline: as §1

[8] = tested on: T8, OR2B8
T8 sequence (whole entry): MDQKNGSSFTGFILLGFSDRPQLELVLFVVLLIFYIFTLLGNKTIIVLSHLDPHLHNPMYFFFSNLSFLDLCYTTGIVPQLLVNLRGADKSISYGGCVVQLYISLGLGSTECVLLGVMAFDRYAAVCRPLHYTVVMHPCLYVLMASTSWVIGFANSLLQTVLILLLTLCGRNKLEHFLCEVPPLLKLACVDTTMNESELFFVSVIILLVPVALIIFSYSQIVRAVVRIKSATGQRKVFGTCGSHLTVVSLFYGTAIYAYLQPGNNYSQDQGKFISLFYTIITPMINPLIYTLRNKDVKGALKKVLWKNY
Outline: as §1

[9] = tested on: T9, OR2C1
T9 sequence (whole entry): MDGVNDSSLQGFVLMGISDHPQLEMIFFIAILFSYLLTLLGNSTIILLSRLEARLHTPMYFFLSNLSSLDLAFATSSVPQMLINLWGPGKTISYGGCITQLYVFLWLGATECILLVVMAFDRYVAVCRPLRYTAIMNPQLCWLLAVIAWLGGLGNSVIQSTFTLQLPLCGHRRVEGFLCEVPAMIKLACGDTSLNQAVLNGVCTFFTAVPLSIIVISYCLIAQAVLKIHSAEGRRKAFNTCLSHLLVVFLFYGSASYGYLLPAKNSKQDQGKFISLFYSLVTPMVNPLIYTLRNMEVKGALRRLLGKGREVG
Outline: as §1

[10] = tested on: T10, OR2C1; remark: listed apart in the source
T10 sequence (whole entry): T9 sequence (whole entry) with H229R
Outline: as §1

Measured: odorant receptor agonist call;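 also: active if original authors judged signal statistically different from baseline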

CS
inactive: all assays above

CCC(C)=O
inactive: all assays above

CCCCOC(C)=O
inactive: all assays above

Source: the M2OR odorant receptor database
